# Measurements reported in PubChem BioAssay AID493246 (Drosophila RNAi Screening Center, 2011)
# Purpose: 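Identify essential fly genes by loss of cell viability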 (primary screen)
# Cell system: Drosophila Kc and S2R+ cells
# Reagents: long dsRNA against Drosophila genes
# Read-out: 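Raw, unnormalised count of remaining cells in each well; per-plate z-scores of cell number underlie the calls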
# Reading the numbers: Kc cell number and S2R+ cell number: higher = more cells remaining
# Active means: 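Active when the per-plate z-score of cell number is 3 or more in the direction of fewer cells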
# In all, the deposit lists about 21,000 reagents; below is an unselected part of those with a known target gene and a result. Over the whole deposit, 429 (2%) were called active. 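Values are raw and not normalised between plates; calls rest on per-plate z-scores that were not deposited.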 Unmarked entries are inactive. Reagents against one gene are numbered here. Not stated in the record: the amount of reagent, the time to read-out.
"Kc cell number, rep 1","Kc cell number, rep 2","S2R+ cell number, rep 1","S2R+ cell number, rep 2",Target gene,reagent
1.46e6,1.51e6,1.01e6,1.12e6,dsh (dishevelled),1
1.38e6,1.49e6,1.19e6,1.13e6,Prat2 (Phosphoribosylamidotransferase 2),1
1.67e6,1.77e6,1.45e6,1.61e6,Sox14 (Sox box protein 14),1
1.53e6,1.61e6,1.20e6,3.48e5,CG18735,1
1.58e6,1.62e6,1.03e6,1.15e6,CecC (Cecropin C),1
1.51e6,1.75e6,1.29e6,1.39e6,CG6938,1
1.36e6,1.50e6,1.10e6,1.24e6,jv (javelin),1
1.42e6,1.55e6,1.09e6,1.24e6,jv (javelin),2
1.41e6,1.42e6,6.22e5,6.69e5,Spp (Signal peptide peptidase),1
1.53e6,1.69e6,1.24e6,1.29e6,GstE12 (Glutathione S transferase E12),1
1.45e6,1.47e6,1.11e6,1.19e6,CG14285,1
1.55e6,1.58e6,1.31e6,1.34e6,CG7668,1
1.54e6,1.56e6,1.03e6,1.23e6,Hecw (Hecw ubiquitin protein ligase),1
1.54e6,1.50e6,1.05e6,1.18e6,Hecw (Hecw ubiquitin protein ligase),2
1.44e6,1.44e6,1.24e6,1.34e6,obst-I (obstructor-I),1
1.68e6,1.57e6,1.04e6,1.12e6,Reepl1 (Receptor accessory protein like 1),1
1.46e6,1.58e6,1.12e6,1.31e6,app (approximated),1
1.58e6,1.72e6,1.42e6,1.48e6,app (approximated),2
1.55e6,1.91e6,1.30e6,1.41e6,app (approximated),3
1.34e6,1.18e6,7.87e5,8.91e5,mdu (meduse),1
1.40e6,1.66e6,1.07e6,1.15e6,srp (serpent),1
5.29e5 (active),5.36e5,6.45e5,7.72e5,srp (serpent),2
1.42e6,1.37e6,1.08e6,1.14e6,CG14282,1
1.26e6,1.43e6,4.89e5,6.21e5,CG8668,1
1.56e6,1.71e6,1.02e6,1.10e6,"E(spl)mdelta-HLH (Enhancer of split mdelta, helix-loop-helix)",1
1.50e6,1.48e6,1.03e6,1.13e6,Ir100a (Ionotropic receptor 100a),1
1.31e6,1.38e6,1.01e6,1.09e6,l(2)k09913 (lethal (2) k09913),1
1.58e6,1.60e6,1.11e6,1.21e6,mura (murashka),1
2.19e5 (active),2.41e5,3.93e5,4.68e5,mura (murashka),2
1.60e6,1.67e6,1.38e6,1.47e6,h-cup (heineken-cup),1
1.66e6,1.64e6,1.42e6,1.70e6,Mal-B1 (Maltase B1),1
1.50e6,1.68e6,1.28e6,1.24e6,Lcp65Ae,1
1.85e6,1.67e6,1.25e6,1.40e6,Fpgs2 (Folylpolyglutamate synthase 2),1
1.52e6,1.54e6,1.26e6,1.41e6,CG6878,1
5.99e5,,9.33e5,,CG9917,1
1.37e6,1.57e6,1.26e6,1.33e6,SAK (Sak kinase),1
1.50e6 (active),1.13e6,7.08e5,7.07e5,grsm (granny smith),1
1.61e6,1.46e6,1.09e6,1.18e6,grsm (granny smith),2
1.44e6,1.53e6,1.25e6,1.26e6,Blimp-1,1
1.59e6,1.68e6,1.30e6,1.36e6,CG18367,1
1.63e6,1.59e6,9.56e5,1.10e6,mbc (myoblast city),1
1.55e6,1.57e6,1.37e6,1.34e6,CG7611,1
1.48e6,1.52e6,1.22e6,1.31e6,GstZ1 (Glutathione S transferase Z1),1
1.46e6,1.88e6,1.53e6,5.94e5,pgc (polar granule component),1
1.52e6,1.61e6,1.35e6,1.39e6,CG12490,1
1.51e6,1.39e6,9.81e5,1.31e6,LysP (Lysozyme P),1
1.44e6,1.30e6,1.14e6,1.28e6,Acox3 (Acyl-CoA oxidase 3),1
1.64e6,1.74e6,1.28e6,1.36e6,Snap29 (Synaptosomal-associated protein 29kDa),1
1.61e6,1.63e6,1.15e6,1.19e6,CG13685,1
1.43e6,1.56e6,1.24e6,1.22e6,bmm (brummer),1
1.40e6,1.53e6,9.41e5,1.19e6,CG30047,1
1.37e6,1.45e6,1.19e6,1.12e6,Hmbs (Hydroxymethylbilane synthase),1
1.64e6,1.66e6,1.16e6,1.29e6,plu (plutonium),1
1.68e6,1.71e6,1.11e6,1.29e6,ubl (ubiquitin like),1
1.74e6,1.77e6,1.01e6,1.19e6,CCKLR-17D3 (Cholecystokinin-like receptor at 17D3),1
1.51e6,1.51e6,1.00e6,1.12e6,CCKLR-17D3 (Cholecystokinin-like receptor at 17D3),2
1.61e6,1.64e6,1.39e6,1.47e6,RAF2 (RING-associated factor 2),1
1.44e6,1.49e6,1.16e6,1.26e6,RAF2 (RING-associated factor 2),2
5.28e5,,8.94e5,,CG32712,1
